Experimental data taken from the supplement of paper PMC6078165.
The reference is the same well before dosing, and untreated signal decays as well.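 Labels refer to human fibroblasts, largely primary: uterine (C12385, HUF), lung (H6013), bone (Hs27A), adrenal (HADF), skin (WS1), plus mammary HMF and breast cancer-associated Hs343T. Cancer lines are basal-like or mesenchymal-like triple-negative breast cancer. The paper counts as hits responses shifting over 3x the replicate standard deviation. The tissue of the other fibroblasts is not given here.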

System: MDAMB468
Test: relative JC-1 red fluorescence (viability) vs pre-drug, coculture with fibroblast (fraction); higher = more viable cancer cells
Experimental: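 JC-1 labelled TNBC cells cocultured 1:1 (1,500 cells each) with CellTrace Violet stained primary or stromal fibroblasts in 384-well plates in FluoroBrite medium, treated with one of 42 anticancer drugs at 0.1, 1, 10 or 100 uM. JC-1 red fluorescence (mitochondrial integrity in cancer cells only) was read by plate reader every 8 h for 72 h. Values are normalised to each well's pre-drug value. The stock of one drug was tenfold lower, so its dose labels may be too high.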

CC[C@]1(O)C[C@H]2CN(CCc3c([nH]c4ccccc34)[C@@](C(=O)OC)(c3cc4c(cc3OC)N(C=O)[C@H]3[C@@](O)(C(=O)OC)[C@H](OC(C)=O)[C@]5(CC)C=CCN6CC[C@]43[C@@H]65)C2)C1 [Vincristine]
relative JC-1 red fluorescence
Conditions | 8 h | 16 h | 24 h | 32 h | 40 h | 48 h | 56 h | 64 h | 72 h
10 µM, coculture fibroblast: C12385 | 0.888 | 0.89 | 0.889 | 0.882 | 0.8487 | 0.855 | 0.8197 | 0.798 | 0.791
10 µM, coculture fibroblast: H6013 | 0.873 | 0.896 | 0.873 | 0.875 | 0.852 | 0.871 | 0.846 | 0.838 | 0.8083
10 µM, coculture fibroblast: H6019 | 0.8973 | 0.9231 | 0.9382 | 0.949 | 0.956 | 0.923 | 0.9833 | 0.954 | 0.875
10 µM, coculture fibroblast: H6076 | 0.935 | 0.853 | 0.8018 | 0.863 | 0.889 | 0.887 | 0.923 | 0.912 | 0.922
10 µM, coculture fibroblast: H6231 | 0.889 | 0.9931 | 0.956 | 0.947 | 0.902 | 0.883 | 0.832 | 0.818 | 0.817
10 µM, coculture fibroblast: HADF | 0.898 | 0.919 | 0.884 | 0.902 | 0.855 | 0.857 | 0.815 | 0.806 | 0.777
10 µM, coculture fibroblast: HCFa | 0.8851 | 0.878 | 0.84 | 0.835 | 0.7757 | 0.77548 | 0.73876 | 0.71 | 0.6922
10 µM, coculture fibroblast: HCPF | 0.886 | 0.93 | 0.906 | 0.79 | 0.9694 | 0.958 | 0.888 | 0.873 | 0.858
10 µM, coculture fibroblast: HHSteC | 0.902 | 0.916 | 0.899 | 0.88 | 0.836 | 0.85 | 0.782 | 0.76 | 0.733
10 µM, coculture fibroblast: HMF | 0.848 | 0.872 | 0.777 | 0.855 | 0.9525 | 0.9296 | 0.871 | 0.8485 | 0.82
10 µM, coculture fibroblast: HPFa | 0.9446 | 0.9451 | 0.9255 | 0.876 | 0.855 | 0.868 | 0.811 | 0.789 | 0.726
10 µM, coculture fibroblast: HUF | 0.922 | 0.912 | 0.906 | 0.867 | 0.854 | 0.849 | 0.827 | 0.827 | 0.835
10 µM, coculture fibroblast: Hs5 | 0.9963 | 0.775 | 0.749 | 0.7726 | 0.869 | 0.983 | 0.956 | 0.925 | 0.951
10 µM, coculture fibroblast: Hs27A | 0.895 | 0.905 | 0.866 | 0.876 | 0.834 | 0.831 | 0.798 | 0.781 | 0.755
10 µM, coculture fibroblast: Hs343T | 0.8887 | 0.956 | 0.9802 | 0.982 | 0.927 | 0.917 | 0.881 | 0.866 | 0.843
10 µM, coculture fibroblast: WS1 | 0.913 | 0.8786 | 0.856 | 0.827 | 0.797 | 0.768 | 0.751 | 0.724 | 0.711
100 µM, coculture fibroblast: C12385 | 0.8865 | 0.8841 | 0.8882 | 0.8593 | 0.857 | 0.865 | 0.866 | 0.846 | 0.847
100 µM, coculture fibroblast: H6013 | 0.884 | 0.874 | 0.882 | 0.9 | 0.886 | 0.91 | 0.897 | 0.8911 | 0.8715
100 µM, coculture fibroblast: H6019 | 0.89 | 0.891 | 0.915 | 0.915 | 0.918 | 0.9327 | 0.918 | 0.9163 | 0.9274
100 µM, coculture fibroblast: H6076 | 0.931 | 0.806 | 0.8438 | 0.759 | 0.854 | 0.735 | 0.759 | 0.896 | 0.873
100 µM, coculture fibroblast: H6231 | 0.842 | 0.855 | 0.825 | 0.818 | 0.792 | 0.901 | 0.912 | 0.904 | 0.907
100 µM, coculture fibroblast: HADF | 0.9029 | 0.9053 | 0.889 | 0.9221 | 0.906 | 0.9245 | 0.9041 | 0.891 | 0.846
100 µM, coculture fibroblast: HCFa | 0.869 | 0.85 | 0.819 | 0.837 | 0.81 | 0.828 | 0.8 | 0.792 | 0.7676
100 µM, coculture fibroblast: HCPF | 0.927 | 0.851 | 0.876 | 0.968 | 0.891 | 0.904 | 0.901 | 0.889 | 0.876
100 µM, coculture fibroblast: HHSteC | 0.907 | 0.9091 | 0.9092 | 0.9251 | 0.902 | 0.946 | 0.897 | 0.888 | 0.867
100 µM, coculture fibroblast: HMF | 0.91 | 0.902 | 0.938 | 0.979 | 0.916 | 0.902 | 0.856 | 0.838 | 0.822
100 µM, coculture fibroblast: HPFa | 0.921 | 0.922 | 0.913 | 0.892 | 0.881 | 0.919 | 0.883 | 0.891 | 0.866
100 µM, coculture fibroblast: HUF | 0.9419 | 0.91 | 0.9035 | 0.872 | 0.88249 | 0.8745 | 0.8422 | 0.856 | 0.855
100 µM, coculture fibroblast: Hs5 | 0.898 | 0.902 | 0.922 | 0.922 | 0.94 | 0.925 | 0.899 | 0.8851 | 0.932
100 µM, coculture fibroblast: Hs27A | 0.8614 | 0.8653 | 0.8325 | 0.8709 | 0.843 | 0.86 | 0.862 | 0.857 | 0.839
100 µM, coculture fibroblast: Hs343T | 0.93223 | 0.732 | 0.956 | 0.933 | 0.923 | 0.915 | 0.862 | 0.843 | 0.838
100 µM, coculture fibroblast: WS1 | 0.8855 | 0.867 | 0.8629 | 0.8393 | 0.832 | 0.808 | 0.802 | 0.789 | 0.801
